The values that follow come from publication PMC11681384.

No constants are given. Whether binding was seen depends on the method and setting. For some of these results: Binding seen in cells or lysates may run through a third protein. Some results given as binding are weak or reduced against the parent protein; the word gives no strength.

For test [1], the target named is T1, RPM1-interacting protein 4 (RIN4), pSPYNE::RIN4 (Arabidopsis thaliana) (UniProt Q8GYN5).
T1 sequence: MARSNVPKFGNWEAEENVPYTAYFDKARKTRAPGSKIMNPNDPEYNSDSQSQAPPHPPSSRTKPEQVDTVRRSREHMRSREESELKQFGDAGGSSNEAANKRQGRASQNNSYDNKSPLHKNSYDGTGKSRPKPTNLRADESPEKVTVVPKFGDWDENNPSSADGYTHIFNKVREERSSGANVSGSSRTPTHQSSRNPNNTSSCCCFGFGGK
Nature of the test: split reporter; split-YFP; pSPYNE::RIN4 and pSPYCE::Exo70B1 co-expressed by Agrobacterium GV3101 infiltration in N. benthamiana leaves; fluorescence observed 72 h post-infiltration.

Test [2] deals with T2, RIN4^T166D, bait in pDEST32 (Arabidopsis thaliana) (UniProt Q8GYN5).
T2 sequence: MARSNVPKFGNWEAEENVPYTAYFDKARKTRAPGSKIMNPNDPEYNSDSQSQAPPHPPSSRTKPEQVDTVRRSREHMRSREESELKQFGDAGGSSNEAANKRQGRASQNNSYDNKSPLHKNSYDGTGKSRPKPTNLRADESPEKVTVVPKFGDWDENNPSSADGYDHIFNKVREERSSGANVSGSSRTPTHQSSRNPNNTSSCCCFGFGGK
Nature of the test: two-hybrid; RIN4 variants as bait in pDEST32, EXO70B1 as prey in pDEST22; yeast strain AH109; transformants selected on SD-Leu-Trp, positive clones plated on SD-Leu-Trp-Ura-His.

The target of test [3] is T3, RIN4^T21E/S160E/T166D, bait in pDEST32 (Arabidopsis thaliana) (UniProt Q8GYN5).
T3 sequence: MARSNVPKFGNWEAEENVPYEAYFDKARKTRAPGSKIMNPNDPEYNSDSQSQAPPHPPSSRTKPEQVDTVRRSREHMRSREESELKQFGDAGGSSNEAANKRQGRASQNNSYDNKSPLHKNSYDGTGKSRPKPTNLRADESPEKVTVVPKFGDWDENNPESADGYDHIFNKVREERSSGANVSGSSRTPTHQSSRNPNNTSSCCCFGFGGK
The description is as above.

Test [4] has as its target T4, RPM1-interacting protein 4 (RIN4), full-length, bait in pDEST32 (Arabidopsis thaliana) (UniProt Q8GYN5).
T4 sequence: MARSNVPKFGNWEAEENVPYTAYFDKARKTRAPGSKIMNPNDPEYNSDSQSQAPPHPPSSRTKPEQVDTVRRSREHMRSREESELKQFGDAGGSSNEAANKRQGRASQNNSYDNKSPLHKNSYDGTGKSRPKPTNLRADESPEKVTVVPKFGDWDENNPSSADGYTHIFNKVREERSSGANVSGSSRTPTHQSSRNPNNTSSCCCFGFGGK
Described as above.

B1: Exo70B1, pSPYCE::Exo70B1 (protein, UniProt Q9FGH9 1-624)
chain: MAENGEEKLLAVARHIAKTLGHNESMADDILQIFSNFDGRFSREKLAEGQAGEDGSGVATLERALNSIDGQISRFVAADQPIWADPADSAAFLDTIDELVAIIREWSPMASEKPIGICLTRADDMMQQAMFRIEEEFRSLMERGAESFGLNPQGDAGAMNHRFDSEEEEDDDRDFNNGDDIQIPVAQPLTDYDLIIDALPSATINDLHEMAKRMLGAGFGKACSHVYSSCRREFLEESMSRLGLQKLSIEEVHKMPWQELEDEIDRWIKAANVALRILFPSERRLCDRVFFGFSSAADLSFMEVCRGSTIQLLNFADAIAIGSRSPERLFKVLDVFETMRDLMPEFESVFSDQFCSVLRNEAVTIWKRLGEAIRGIFMELENLIRRDPAKAAVPGGGLHPITRYVMNYLRAACRSRQTLEQVFEESNGVPSKDSTLLTVQMSWIMELLESNLEVKSKVYKDPALCYVFLMNNGRYIVQKVKDGDLGLLLGDDWIRKHNVKVKQYHMNYQRSSWNKMLGLLKVDNTAAGMNGLGKTMKEKLKQFNIQFDEICKVHSTWVVFDEQLKEELKISLARLLVPAYGSFIGRFQNLGDIGKNADKYIKYGVEDIEARINELFKGTTTGRK
On to B1, for which, in test [1], the binding entry was “binds”.

B2: EXO70B1, prey in pDEST22 (protein, UniProt Q9FGH9 1-624)
chain: MAENGEEKLLAVARHIAKTLGHNESMADDILQIFSNFDGRFSREKLAEGQAGEDGSGVATLERALNSIDGQISRFVAADQPIWADPADSAAFLDTIDELVAIIREWSPMASEKPIGICLTRADDMMQQAMFRIEEEFRSLMERGAESFGLNPQGDAGAMNHRFDSEEEEDDDRDFNNGDDIQIPVAQPLTDYDLIIDALPSATINDLHEMAKRMLGAGFGKACSHVYSSCRREFLEESMSRLGLQKLSIEEVHKMPWQELEDEIDRWIKAANVALRILFPSERRLCDRVFFGFSSAADLSFMEVCRGSTIQLLNFADAIAIGSRSPERLFKVLDVFETMRDLMPEFESVFSDQFCSVLRNEAVTIWKRLGEAIRGIFMELENLIRRDPAKAAVPGGGLHPITRYVMNYLRAACRSRQTLEQVFEESNGVPSKDSTLLTVQMSWIMELLESNLEVKSKVYKDPALCYVFLMNNGRYIVQKVKDGDLGLLLGDDWIRKHNVKVKQYHMNYQRSSWNKMLGLLKVDNTAAGMNGLGKTMKEKLKQFNIQFDEICKVHSTWVVFDEQLKEELKISLARLLVPAYGSFIGRFQNLGDIGKNADKYIKYGVEDIEARINELFKGTTTGRK
In the case of B2, the binding entry is “no binding” in test [2], “no binding” in test [3] and “binds” in test [4].
